Data taken from the supplement of paper PMC11451515.

Experiments:
Details in all cases: 48 h
NOMO1 [1] = test: cell viability relative to DMSO control; higher = less cytotoxic
Method in brief: (§1)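 Three leukemia lines were tested: NOMO1 and SEM at 500 cells/well and P12-Ichikawa at 1000 cells/well. Each was adapted for at least four passages in each medium and seeded in 5 μl in 1536-well plates, and library compounds in DMSO were pin-dosed from 47 μM to 0.79 nM in 11 threefold steps. After 48 h at 37°C, CellTiter-Glo One luminescence was read. Viability is a percentage relative to DMSO wells on each plate, with cell-free wells as background.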

P12-Ichikawa [2] = test: as above
Method in brief: as §1

SEM cells [3] = test: as above
Method in brief: as §1

NOMO1 [4] = test: AUC of viability dose-response curve (% viability x log10 dose units); higher = less sensitive
Method in brief: (§2)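 Seeding of medium-adapted leukemia cells was at 500 or 1000 cells/well in 1536-well plates, followed by 48 h at 37°C with library compounds in DMSO at 11 threefold doses from 47 μM to 0.79 nM. CellTiter-Glo One luminescence was normalised per plate to DMSO and cell-free wells and fitted as a four-parameter log-logistic function of log10 dose. Area under the curve was integrated by trapezoidal rule, with curves exceeding full viability scaled and curves failing quality control removed.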

P12-Ichikawa [5] = test: as above
Method in brief: as §2

SEM cells [6] = test: as above
Method in brief: as §2

COC(=O)[C@H](CCCNC(=N)N)N[S+](=O)([O-])c1ccc(C)cc1
cell viability [%]
Details	NOMO1 [1]	P12-Ichikawa [2]	SEM cells [3]
HPLM + 10% dialyzed FBS, 0.000781 µM	83.3	90.4	79.7
HPLM + 10% dialyzed FBS, 0.00234 µM	92.7	100	88.2
HPLM + 10% dialyzed FBS, 0.00702 µM	108	96.6	82.6
HPLM + 10% dialyzed FBS, 0.0211 µM	107	101	89.9
HPLM + 10% dialyzed FBS, 0.0632 µM	96.8	101	90.2
HPLM + 10% dialyzed FBS, 0.19 µM	122	102	106
HPLM + 10% dialyzed FBS, 0.569 µM	109	102	108
HPLM + 10% dialyzed FBS, 1.71 µM	105	99.7	101
HPLM + 10% dialyzed FBS, 5.12 µM	92.3	110	101
HPLM + 10% dialyzed FBS, 15.4 µM	58.3	83.2	28.9
HPLM + 10% dialyzed FBS, 46.1 µM	66.1	86.5	48.1
RPMI 5 mM glucose + 10% FBS, 0.000781 µM	84.4	100	96.4
RPMI 5 mM glucose + 10% FBS, 0.00234 µM	89.4	65	92.8
RPMI 5 mM glucose + 10% FBS, 0.00702 µM	96.5	94.9	98.1
RPMI 5 mM glucose + 10% FBS, 0.0211 µM	88.5	96.9	100
RPMI 5 mM glucose + 10% FBS, 0.0632 µM	113	91.8	100
RPMI 5 mM glucose + 10% FBS, 0.19 µM	111	98.1	89.5
RPMI 5 mM glucose + 10% FBS, 0.569 µM	96.3	106	110
RPMI 5 mM glucose + 10% FBS, 1.71 µM	90.7	102	89.2
RPMI 5 mM glucose + 10% FBS, 5.12 µM	92.7	102	103
RPMI 5 mM glucose + 10% FBS, 15.4 µM	77.6	77.6	35.8
RPMI 5 mM glucose + 10% FBS, 46.1 µM	79.5	83.7	36.9
RPMI 5 mM glucose + 10% dialyzed FBS, 0.000781 µM	77	87.1	81
RPMI 5 mM glucose + 10% dialyzed FBS, 0.00234 µM	84.8	89.2	71.3
RPMI 5 mM glucose + 10% dialyzed FBS, 0.00702 µM	94	102	80.3
RPMI 5 mM glucose + 10% dialyzed FBS, 0.0211 µM	97.5	95.7	87.4
RPMI 5 mM glucose + 10% dialyzed FBS, 0.0632 µM	96.2	101	93.2
RPMI 5 mM glucose + 10% dialyzed FBS, 0.19 µM	87.9	97.1	99.2
RPMI 5 mM glucose + 10% dialyzed FBS, 0.569 µM	99.6	100	99.9
RPMI 5 mM glucose + 10% dialyzed FBS, 1.71 µM	90.7	93.8	92.7
RPMI 5 mM glucose + 10% dialyzed FBS, 5.12 µM	95.7	99.7	96.2
RPMI 5 mM glucose + 10% dialyzed FBS, 15.4 µM	68.2	71.4	30.5
RPMI 5 mM glucose + 10% dialyzed FBS, 46.1 µM	86.5	81.6	34.1

AUC of viability dose-response curve
Details	NOMO1 [4]	P12-Ichikawa [5]	SEM cells [6]
HPLM + 10% dialyzed FBS	444	466	409
RPMI 5 mM glucose + 10% FBS	444	444	422
RPMI 5 mM glucose + 10% dialyzed FBS	426	445	384
